Source: the supplement of paper PMC10849652
Some of the results follow.

Sequences of proteins named here, by UniProt entry; tags and fusion partners are left off. A change or cut given only in a name is not applied to a line headed by its entry.
UniProt Q8TB96: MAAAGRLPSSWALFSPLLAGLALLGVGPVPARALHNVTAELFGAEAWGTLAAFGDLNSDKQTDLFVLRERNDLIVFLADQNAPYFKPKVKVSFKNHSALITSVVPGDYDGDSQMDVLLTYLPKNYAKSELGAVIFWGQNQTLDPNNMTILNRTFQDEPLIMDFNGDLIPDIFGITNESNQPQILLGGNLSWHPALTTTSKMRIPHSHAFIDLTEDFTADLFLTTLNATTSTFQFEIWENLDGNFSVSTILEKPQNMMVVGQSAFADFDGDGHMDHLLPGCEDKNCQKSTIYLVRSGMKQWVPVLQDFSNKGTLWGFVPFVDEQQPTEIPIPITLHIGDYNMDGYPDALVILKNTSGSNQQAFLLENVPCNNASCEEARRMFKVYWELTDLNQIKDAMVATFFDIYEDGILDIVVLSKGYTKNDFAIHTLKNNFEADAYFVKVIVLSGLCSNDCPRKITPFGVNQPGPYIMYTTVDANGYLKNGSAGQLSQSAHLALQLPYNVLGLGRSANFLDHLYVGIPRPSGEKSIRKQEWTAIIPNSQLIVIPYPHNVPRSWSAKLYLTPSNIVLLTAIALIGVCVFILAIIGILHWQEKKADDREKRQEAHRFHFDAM
UniProt Q9H9V9: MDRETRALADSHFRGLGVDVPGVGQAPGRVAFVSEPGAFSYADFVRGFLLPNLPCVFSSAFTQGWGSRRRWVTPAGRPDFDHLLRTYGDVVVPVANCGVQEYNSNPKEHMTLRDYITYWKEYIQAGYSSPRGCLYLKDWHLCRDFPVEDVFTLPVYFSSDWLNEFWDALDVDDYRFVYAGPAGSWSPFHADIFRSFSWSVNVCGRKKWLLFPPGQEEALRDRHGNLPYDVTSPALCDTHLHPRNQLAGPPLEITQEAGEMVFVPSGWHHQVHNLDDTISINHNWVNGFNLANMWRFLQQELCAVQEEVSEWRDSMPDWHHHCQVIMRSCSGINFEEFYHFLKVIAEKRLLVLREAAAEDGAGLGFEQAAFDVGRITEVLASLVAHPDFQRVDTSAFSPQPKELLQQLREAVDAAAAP
UniProt O43736: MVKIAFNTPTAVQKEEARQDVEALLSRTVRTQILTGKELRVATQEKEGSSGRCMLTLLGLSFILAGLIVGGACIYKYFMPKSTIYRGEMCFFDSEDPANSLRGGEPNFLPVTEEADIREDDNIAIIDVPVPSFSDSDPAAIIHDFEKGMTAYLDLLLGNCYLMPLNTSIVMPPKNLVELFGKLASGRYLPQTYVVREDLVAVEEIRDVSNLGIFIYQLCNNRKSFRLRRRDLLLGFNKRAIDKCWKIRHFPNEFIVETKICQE
UniProt P18084: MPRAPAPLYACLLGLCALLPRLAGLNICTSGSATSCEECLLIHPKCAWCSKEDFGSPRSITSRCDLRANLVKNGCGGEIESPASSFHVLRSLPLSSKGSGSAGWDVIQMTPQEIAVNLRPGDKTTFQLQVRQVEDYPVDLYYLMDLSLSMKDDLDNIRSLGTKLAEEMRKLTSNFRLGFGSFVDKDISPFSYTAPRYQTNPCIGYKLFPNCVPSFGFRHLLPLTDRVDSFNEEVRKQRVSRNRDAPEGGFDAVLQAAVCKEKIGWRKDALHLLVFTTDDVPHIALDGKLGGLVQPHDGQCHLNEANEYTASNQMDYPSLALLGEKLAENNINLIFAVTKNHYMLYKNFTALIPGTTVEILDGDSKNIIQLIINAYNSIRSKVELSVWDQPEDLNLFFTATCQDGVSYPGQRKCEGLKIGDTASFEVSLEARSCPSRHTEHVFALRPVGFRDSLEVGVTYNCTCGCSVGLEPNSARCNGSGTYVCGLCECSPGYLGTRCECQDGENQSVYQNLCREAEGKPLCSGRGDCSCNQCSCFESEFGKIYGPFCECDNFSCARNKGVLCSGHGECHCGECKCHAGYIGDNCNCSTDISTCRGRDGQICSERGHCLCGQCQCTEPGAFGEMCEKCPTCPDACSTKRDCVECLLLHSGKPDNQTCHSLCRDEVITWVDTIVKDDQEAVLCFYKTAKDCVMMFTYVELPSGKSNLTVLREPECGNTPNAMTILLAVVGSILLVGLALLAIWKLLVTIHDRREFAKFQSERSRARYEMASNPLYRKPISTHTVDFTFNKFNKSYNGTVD
UniProt Q8IY47: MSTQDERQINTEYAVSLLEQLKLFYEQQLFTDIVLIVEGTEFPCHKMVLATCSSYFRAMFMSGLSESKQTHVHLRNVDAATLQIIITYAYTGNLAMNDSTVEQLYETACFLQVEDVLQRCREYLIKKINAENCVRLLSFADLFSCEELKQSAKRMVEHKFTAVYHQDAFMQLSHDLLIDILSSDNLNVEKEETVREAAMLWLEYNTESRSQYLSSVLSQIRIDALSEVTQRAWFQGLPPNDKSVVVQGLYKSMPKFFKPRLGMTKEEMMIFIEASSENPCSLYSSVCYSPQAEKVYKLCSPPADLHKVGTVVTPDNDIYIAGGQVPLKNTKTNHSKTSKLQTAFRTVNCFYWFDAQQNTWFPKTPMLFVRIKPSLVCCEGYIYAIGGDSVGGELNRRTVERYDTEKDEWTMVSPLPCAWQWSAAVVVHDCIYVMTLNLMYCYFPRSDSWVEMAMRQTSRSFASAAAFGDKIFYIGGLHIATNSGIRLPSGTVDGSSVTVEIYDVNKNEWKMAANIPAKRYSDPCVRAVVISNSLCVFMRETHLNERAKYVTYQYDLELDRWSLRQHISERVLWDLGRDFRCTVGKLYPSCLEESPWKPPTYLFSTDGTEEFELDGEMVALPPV
UniProt Q9H9L3: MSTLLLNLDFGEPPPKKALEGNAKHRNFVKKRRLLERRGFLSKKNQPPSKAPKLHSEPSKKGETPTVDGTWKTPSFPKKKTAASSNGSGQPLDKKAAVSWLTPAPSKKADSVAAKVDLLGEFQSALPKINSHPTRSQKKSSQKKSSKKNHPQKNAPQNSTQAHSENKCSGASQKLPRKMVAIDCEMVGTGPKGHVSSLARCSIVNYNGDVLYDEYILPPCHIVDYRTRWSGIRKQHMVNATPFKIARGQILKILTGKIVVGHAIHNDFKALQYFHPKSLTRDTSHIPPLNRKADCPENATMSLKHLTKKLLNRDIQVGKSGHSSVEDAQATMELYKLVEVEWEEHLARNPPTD
UniProt Q96SI1: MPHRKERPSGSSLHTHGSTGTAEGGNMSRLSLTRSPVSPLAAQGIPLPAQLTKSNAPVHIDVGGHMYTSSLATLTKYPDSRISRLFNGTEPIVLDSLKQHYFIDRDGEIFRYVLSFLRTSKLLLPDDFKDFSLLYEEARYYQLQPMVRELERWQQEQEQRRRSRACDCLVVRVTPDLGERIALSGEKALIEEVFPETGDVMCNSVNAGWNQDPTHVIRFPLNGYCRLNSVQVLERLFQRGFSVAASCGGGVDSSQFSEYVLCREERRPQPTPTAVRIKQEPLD
UniProt Q9Y2K7: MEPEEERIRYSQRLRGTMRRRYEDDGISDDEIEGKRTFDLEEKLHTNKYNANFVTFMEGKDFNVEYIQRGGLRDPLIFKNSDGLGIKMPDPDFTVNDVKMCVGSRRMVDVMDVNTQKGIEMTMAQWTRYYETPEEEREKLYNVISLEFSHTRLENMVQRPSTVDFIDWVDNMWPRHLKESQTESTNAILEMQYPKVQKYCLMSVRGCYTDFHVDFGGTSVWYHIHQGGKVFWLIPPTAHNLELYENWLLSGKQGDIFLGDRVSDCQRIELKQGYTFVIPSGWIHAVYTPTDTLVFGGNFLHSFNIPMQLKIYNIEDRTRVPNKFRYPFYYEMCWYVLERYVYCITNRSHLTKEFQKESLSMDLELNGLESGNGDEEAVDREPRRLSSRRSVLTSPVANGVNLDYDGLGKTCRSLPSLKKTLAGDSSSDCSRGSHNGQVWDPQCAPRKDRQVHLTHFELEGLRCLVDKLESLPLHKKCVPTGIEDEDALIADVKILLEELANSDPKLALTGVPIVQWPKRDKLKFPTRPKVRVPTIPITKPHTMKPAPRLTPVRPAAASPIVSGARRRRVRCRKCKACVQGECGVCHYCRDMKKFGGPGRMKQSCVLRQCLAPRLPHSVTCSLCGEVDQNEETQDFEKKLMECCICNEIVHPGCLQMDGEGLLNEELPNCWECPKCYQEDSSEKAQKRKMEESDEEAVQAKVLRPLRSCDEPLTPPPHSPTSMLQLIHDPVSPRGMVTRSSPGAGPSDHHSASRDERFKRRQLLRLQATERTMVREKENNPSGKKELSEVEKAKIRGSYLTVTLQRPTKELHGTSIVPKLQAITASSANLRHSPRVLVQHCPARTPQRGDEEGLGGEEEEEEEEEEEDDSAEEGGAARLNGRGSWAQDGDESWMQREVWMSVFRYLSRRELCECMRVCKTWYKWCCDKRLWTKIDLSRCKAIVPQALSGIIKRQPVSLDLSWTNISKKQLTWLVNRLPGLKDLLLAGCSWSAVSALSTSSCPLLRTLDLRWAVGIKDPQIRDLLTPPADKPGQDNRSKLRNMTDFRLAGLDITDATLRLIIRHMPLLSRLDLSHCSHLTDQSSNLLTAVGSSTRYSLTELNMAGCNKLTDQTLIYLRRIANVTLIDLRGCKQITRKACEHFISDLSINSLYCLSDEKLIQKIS
UniProt Q96A47: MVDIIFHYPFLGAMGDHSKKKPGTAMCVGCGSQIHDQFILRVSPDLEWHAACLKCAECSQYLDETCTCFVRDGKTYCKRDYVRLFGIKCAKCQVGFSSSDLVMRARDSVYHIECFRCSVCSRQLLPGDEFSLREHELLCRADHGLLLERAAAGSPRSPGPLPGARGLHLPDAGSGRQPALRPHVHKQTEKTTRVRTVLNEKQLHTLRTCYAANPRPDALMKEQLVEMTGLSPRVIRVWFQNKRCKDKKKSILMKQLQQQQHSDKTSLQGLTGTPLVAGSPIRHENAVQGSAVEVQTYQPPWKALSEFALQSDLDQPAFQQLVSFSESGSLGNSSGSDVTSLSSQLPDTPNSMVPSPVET
UniProt Q9Y573: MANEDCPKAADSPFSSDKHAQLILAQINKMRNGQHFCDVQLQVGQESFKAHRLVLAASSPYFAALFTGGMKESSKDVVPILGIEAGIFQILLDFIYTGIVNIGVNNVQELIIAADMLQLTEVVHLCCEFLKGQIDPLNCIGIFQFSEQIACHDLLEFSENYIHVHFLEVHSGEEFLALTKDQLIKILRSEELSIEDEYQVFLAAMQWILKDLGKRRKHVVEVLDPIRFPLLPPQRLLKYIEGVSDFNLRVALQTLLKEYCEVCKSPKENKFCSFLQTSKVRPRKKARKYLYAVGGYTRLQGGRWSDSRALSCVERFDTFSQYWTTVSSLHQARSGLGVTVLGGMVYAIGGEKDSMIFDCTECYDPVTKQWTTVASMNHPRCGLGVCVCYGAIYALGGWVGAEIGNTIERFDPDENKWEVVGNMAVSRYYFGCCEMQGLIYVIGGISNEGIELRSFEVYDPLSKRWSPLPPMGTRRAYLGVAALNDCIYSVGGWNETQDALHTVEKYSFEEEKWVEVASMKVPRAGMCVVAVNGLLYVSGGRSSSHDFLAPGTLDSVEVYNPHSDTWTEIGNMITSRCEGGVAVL
UniProt O00410: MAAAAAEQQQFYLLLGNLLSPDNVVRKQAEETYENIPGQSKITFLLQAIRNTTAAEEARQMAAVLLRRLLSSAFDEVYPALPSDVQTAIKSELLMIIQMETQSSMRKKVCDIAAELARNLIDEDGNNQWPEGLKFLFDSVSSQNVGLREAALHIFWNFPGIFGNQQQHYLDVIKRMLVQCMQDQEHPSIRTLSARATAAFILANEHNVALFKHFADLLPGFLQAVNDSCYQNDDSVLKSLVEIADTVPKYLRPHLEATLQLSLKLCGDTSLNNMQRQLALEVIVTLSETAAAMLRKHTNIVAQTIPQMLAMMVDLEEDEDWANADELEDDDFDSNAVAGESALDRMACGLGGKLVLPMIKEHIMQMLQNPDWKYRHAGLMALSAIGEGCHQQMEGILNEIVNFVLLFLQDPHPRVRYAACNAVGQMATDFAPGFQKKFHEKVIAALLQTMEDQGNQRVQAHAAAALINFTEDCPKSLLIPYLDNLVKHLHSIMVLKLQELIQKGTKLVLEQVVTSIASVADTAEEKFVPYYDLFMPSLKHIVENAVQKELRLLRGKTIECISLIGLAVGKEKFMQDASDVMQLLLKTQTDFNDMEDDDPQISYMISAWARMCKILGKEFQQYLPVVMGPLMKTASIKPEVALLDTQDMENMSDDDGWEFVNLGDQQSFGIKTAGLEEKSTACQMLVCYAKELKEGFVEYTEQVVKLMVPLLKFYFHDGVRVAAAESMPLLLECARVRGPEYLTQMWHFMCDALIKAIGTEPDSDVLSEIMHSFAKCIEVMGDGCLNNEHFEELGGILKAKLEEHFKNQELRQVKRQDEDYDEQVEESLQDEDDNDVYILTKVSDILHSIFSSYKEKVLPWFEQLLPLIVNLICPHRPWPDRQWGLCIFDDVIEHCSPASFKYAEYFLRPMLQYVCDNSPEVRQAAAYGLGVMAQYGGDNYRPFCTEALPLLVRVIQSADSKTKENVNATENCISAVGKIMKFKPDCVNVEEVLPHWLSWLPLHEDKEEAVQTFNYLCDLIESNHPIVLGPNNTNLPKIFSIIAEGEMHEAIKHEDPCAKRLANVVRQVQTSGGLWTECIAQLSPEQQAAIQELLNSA

How the values were obtained:
Experiment in all cases: log2 fold change, soluble protein after heating vs DMSO (PISA); higher = thermal stabilisation; K562 lysate, 10 uM; active = over 0.2 and 3.5 SD of the protein, either way, in both replicates (recomputed)
alvocidib = compound: CN1CC[C@H](c2c(O)cc(O)c3c(=O)cc(-c4ccccc4Cl)oc23)[C@H](O)C1 [alvocidib]
How it was run: (§1)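 Quantification was by TMTpro 16plex LC-MS/MS with equalised channel sums, applied to the supernatant after 21,000xg for 90 min. Samples were crude K562 extract at 1 mg/mL protein in PBS pH 7.4 with 1 mM MgCl2, treated with 10 μM compound for 30 min, heated for 3 min across 48°C-58°C, pooled and brought to 0.5% NP-40 at 4°C. Values are log-two fold changes in thermal stability relative to solvent controls, from duplicates.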

Tubastatin A = compound: CN1CCc2c(c3ccccc3n2Cc2ccc(C(=O)NO)cc2)C1 [Tubastatin A]
How it was run: as §1

[1] = compound: CNC(=O)C1=CC=CC=C1NC2=NC(=NC=C2Cl)NC3=C(C=C(C=C3)N4CCOCC4)OC
How it was run: as §1

defactinib = compound: CNC(=O)c1ccc(Nc2ncc(C(F)(F)F)c(NCc3nccnc3N(C)S(C)(=O)=O)n2)cc1 [defactinib]
How it was run: as §1

[2] = compound: CNc1nc(-c2ccc3c(N)n[nH]c3c2)cc(N2C[C@@H](C(=O)NC3CCCCC3)CC[C@H]2C)n1
How it was run: as §1

encorafenib = compound: COC(=O)N[C@@H](C)CNc1nccc(-c2cn(C(C)C)nc2-c2cc(Cl)cc(NS(C)(=O)=O)c2F)n1 [encorafenib]
How it was run: as §1

[3] = compound: COC(=O)[C@H](CCSC)NC(=O)C1=C(C=C(C=C1)NC[C@H](CS)N)C2=CC=CC=C2
How it was run: as §1

alisertib = compound: COc1cc(Nc2ncc3c(n2)-c2ccc(Cl)cc2C(c2c(F)cccc2OC)=NC3)ccc1C(=O)O [alisertib]
How it was run: as §1

[4] = compound: COc1cc2nc(-c3cc(F)ccc3O)nc(N[C@@H]3CNC[C@H]3C(C)(C)O)c2cc1OC
How it was run: as §1

gefitinib = compound: COc1cc2ncnc(Nc3ccc(F)c(Cl)c3)c2cc1OCCCN1CCOCC1 [gefitinib]
How it was run: as §1

Measured: log2 fold change

IRAK1 (UniProt P51617)
active: encorafenib 0.812
inactive: alvocidib -0.104 | Tubastatin A -0.038 | [1] 0.314 | defactinib 0.086 | [2] 0.121 | [3] 0.062 | alisertib -0.01 | [4] 0.096 | gefitinib 0.022

IQGAP1 (UniProt P46940)
inactive: alvocidib 0.012 | Tubastatin A -0.025 | [1] -0.027 | defactinib -0.046 | [2] -0.013 | encorafenib -0.033 | [3] 0.129 | alisertib -0.003 | [4] 0.009 | gefitinib -0.024

KDELR3 (UniProt O43731)
inactive: alvocidib -0.065 | Tubastatin A 0.015 | [1] 0.143 | defactinib -0.234 | [2] 0.085 | encorafenib 0.227 | [3] 0.107 | alisertib -0.014 | [4] -0.034 | gefitinib 0.045

ITFG1 (UniProt Q8TB96)
inactive: alvocidib -0.054 | Tubastatin A -0.009 | [1] -0.009 | defactinib 0.012 | [2] 0.043 | encorafenib 0.078 | [3] 0.034 | alisertib 0.017 | [4] 0.01 | gefitinib -0.06

KCNAB2 (UniProt Q13303)
inactive: alvocidib -0.013 | Tubastatin A -0.06 | [1] -0.021 | defactinib -0.038 | [2] 0.023 | encorafenib 0.062 | [3] -0.155 | alisertib -0.001 | [4] -0.021 | gefitinib 0.019

IRF3 (UniProt Q14653)
inactive: alvocidib 0 | Tubastatin A -0.006 | [1] 0.019 | defactinib -0.006 | [2] 0.03 | encorafenib 0.051 | [3] -0.097 | alisertib -0.029 | [4] -0.011 | gefitinib -0.002

IQSEC1 (UniProt Q6DN90)
inactive: alvocidib 0.005 | Tubastatin A -0.032 | [1] 0.07 | defactinib 0.023 | [2] -0.033 | encorafenib 0.061 | [3] 0.054 | alisertib 0.105 | [4] 0.137 | gefitinib -0.116

KARS1 (UniProt Q15046)
active: [3] 0.379
inactive: alvocidib 0.027 | Tubastatin A -0.01 | [1] -0.037 | defactinib 0 | [2] -0.035 | encorafenib -0.028 | alisertib 0.012 | [4] -0.011 | gefitinib -0.022

JMJD4 (UniProt Q9H9V9)
inactive: alvocidib -0.067 | Tubastatin A -0.08 | [1] 0.095 | defactinib 0.143 | [2] 0.107 | encorafenib 0.005 | [3] 0.051 | alisertib 0.048 | [4] 0.042 | gefitinib -0.08

IREB2 (UniProt P48200)
inactive: alvocidib 0.011 | Tubastatin A -0.024 | [1] 0.019 | defactinib -0.034 | [2] -0.029 | encorafenib -0.02 | [3] 0.068 | alisertib -0.007 | [4] -0.02 | gefitinib 0.02

ITM2A (UniProt O43736)
inactive: alvocidib 0.033 | Tubastatin A 0.084 | [1] 0.005 | defactinib 0.017 | [2] -0.052 | encorafenib -0.013 | [3] -0.01 | alisertib 0.131 | [4] -0.004 | gefitinib 0

ITGB5 (UniProt P18084)
inactive: alvocidib 0 | Tubastatin A -0.017 | [1] -0.002 | defactinib -0.011 | [2] 0.018 | encorafenib -0.025 | [3] 0.002 | alisertib 0.016 | [4] 0.018 | gefitinib -0.011

ISCU (UniProt Q9H1K1)
inactive: alvocidib 0.019 | Tubastatin A 0.04 | [1] -0.021 | defactinib 0.012 | [2] -0.009 | encorafenib -0.06 | [3] -0.082 | alisertib -0.036 | [4] -0.017 | gefitinib -0.018

KBTBD2 (UniProt Q8IY47)
active: [3] -0.362
inactive: alvocidib -0.073 | Tubastatin A 0.167 | [1] -0.009 | defactinib -0.013 | [2] -0.036 | encorafenib 0.018 | alisertib -0.053 | [4] -0.01 | gefitinib 0.028

ISG20L2 (UniProt Q9H9L3)
inactive: alvocidib -0.058 | Tubastatin A 0.042 | [1] -0.088 | defactinib -0.108 | [2] 0.081 | encorafenib -0.044 | [3] 0.034 | alisertib -0.05 | [4] -0.011 | gefitinib 0.092

KCTD3 (UniProt Q9Y597)
inactive: alvocidib 0.007 | Tubastatin A 0.004 | [1] 0.033 | defactinib -0.029 | [2] 0 | encorafenib -0.003 | [3] -0.051 | alisertib 0.02 | [4] 0.01 | gefitinib 0.015

ITCH (UniProt Q96J02)
inactive: alvocidib -0.01 | Tubastatin A -0.012 | [1] -0.012 | defactinib 0.036 | [2] -0.024 | encorafenib 0.007 | [3] 0.049 | alisertib 0.007 | [4] 0.097 | gefitinib -0.014

IWS1 (UniProt Q96ST2)
inactive: alvocidib -0.003 | Tubastatin A -0.03 | [1] 0.022 | defactinib 0.005 | [2] 0.049 | encorafenib 0.04 | [3] -0.047 | alisertib -0.004 | [4] -0.017 | gefitinib -0.008

KCTD15 (UniProt Q96SI1)
inactive: alvocidib 0.017 | Tubastatin A -0.04 | [1] -0.015 | defactinib -0.017 | [2] -0.049 | encorafenib 0.095 | [3] -0.092 | alisertib -0.065 | [4] 0.009 | gefitinib 0.025

IST1 (UniProt P53990)
inactive: alvocidib 0.027 | Tubastatin A 0.041 | [1] 0.012 | defactinib -0.009 | [2] -0.013 | encorafenib -0.002 | [3] 0 | alisertib 0.033 | [4] 0.001 | gefitinib 0.044

ITM2B (UniProt Q9Y287)
inactive: alvocidib 0.015 | Tubastatin A 0.007 | [1] 0.037 | defactinib 0.16 | [2] 0.074 | alisertib 0.006 | gefitinib 0.008

KDM2A (UniProt Q9Y2K7)
inactive: alvocidib -0.023 | Tubastatin A -0.109 | [1] 0.023 | defactinib 0.046 | [2] 0.041 | encorafenib 0.008 | [3] 0.083 | alisertib -0.016 | gefitinib 0.009

KAT6B (UniProt Q8WYB5)
inactive: alvocidib -0.183 | Tubastatin A -0.046 | [1] 0.195 | defactinib 0.014 | [2] -0.027 | encorafenib -0.034 | [3] 0.034 | [4] -0.103

KATNBL1 (UniProt Q9H079)
inactive: alvocidib -0.106 | [1] -0.033 | defactinib -0.014 | [2] 0.037 | encorafenib -0.137 | [3] -0.188 | alisertib -0.161 | [4] 0.025 | gefitinib -0.254

JAK2 (UniProt O60674)
inactive: alvocidib 0.002 | Tubastatin A -0.133 | [1] 0.036 | defactinib -0.001 | [2] 0.015 | alisertib 0.076 | gefitinib -0.237

KDELR1 (UniProt P24390)
inactive: alvocidib -0.098 | Tubastatin A -0.003 | [1] 0.036 | defactinib 0.061 | [2] 0.082 | encorafenib 0.034 | [3] 0.065 | [4] 0.115

KDELR2 (UniProt P33947)
inactive: alvocidib -0.071 | Tubastatin A -0.075 | [1] -0.034 | defactinib -0.069 | [2] 0.067 | encorafenib 0.017 | [3] 0.103 | alisertib 0.048 | [4] 0.032 | gefitinib 0.06

IVNS1ABP (UniProt Q9Y6Y0)
inactive: alvocidib -0.037 | Tubastatin A -0.12 | [1] 0.02 | defactinib 0.041 | [2] -0.021 | encorafenib -0.016 | [3] 0.098 | alisertib 0.07 | [4] 0.002 | gefitinib 0.032

KAT5 isoform 3 (UniProt Q92993)
inactive: alvocidib 0.067 | [1] 0.116 | defactinib -0.065 | [2] -0.231 | encorafenib -0.063 | [3] 0.081 | alisertib 0.03 | [4] 0.118 | gefitinib -0.02

ISL2 (UniProt Q96A47)
inactive: alvocidib 0.36 | Tubastatin A 0.032 | [1] -0.042 | [2] 0.025

IPP (UniProt Q9Y573)
inactive: alvocidib 0.001 | Tubastatin A -0.075 | [1] -0.07 | defactinib 0.016 | [2] 0.029 | encorafenib -0.138 | [3] -0.171 | [4] 0.06

Quoted at random: 2 entries already listed.
KCTD15 (UniProt Q96SI1)
inactive: alvocidib 0.017 | Tubastatin A -0.04 | [1] -0.015 | defactinib -0.017 | [2] -0.049 | encorafenib 0.095 | [3] -0.092 | alisertib -0.065 | [4] 0.009 | gefitinib 0.025

ITFG1 (UniProt Q8TB96)
inactive: alvocidib -0.054 | Tubastatin A -0.009 | [1] -0.009 | defactinib 0.012 | [2] 0.043 | encorafenib 0.078 | [3] 0.034 | alisertib 0.017 | [4] 0.01 | gefitinib -0.06

Continued.

IPO5 isoform 3 (UniProt O00410)
inactive: alvocidib 0.014 | Tubastatin A -0.001 | [1] -0.021 | defactinib -0.009 | [2] 0.01 | encorafenib -0.007 | [3] -0.03 | alisertib 0.018 | [4] 0.009 | gefitinib -0.002
